Assay results published in PMC6754446.
No constants are given. Whether binding was seen depends on the method and setting.

Sequences of proteins named here, by UniProt entry; tags and fusion partners are left off. Residues count along the entry.
UniProt P78352, residues 313-393: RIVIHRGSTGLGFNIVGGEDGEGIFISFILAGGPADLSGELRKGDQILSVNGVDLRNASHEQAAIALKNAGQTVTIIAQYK

Key:
[1] = target: OTULINcat (aa 80–352) (human) (UniProt Q96BN8); experiment: condition: 20–30 µM OTULINcat variant in the cell, 150–450 µM PDZ variant in the syringe; ITC; 25 °C, 20 mM HEPES pH 7.4, 200 mM NaCl, 2 mM TCEP; 20–30 µM OTULINcat variant in the cell, 150–450 µM PDZ variant in the syringe; single-site model; both purified
[2] = target: VPS26A, purified recombinant (UniProt O75436); experiment: SEC; purified recombinant proteins, Superdex 75 10/300, 20 mM Tris pH 7.5, 150 mM NaCl, 2 mM DTT; 500 µl of 65 µM complexes at equimolar ratio or in isolation; both purified

“PDZ domain of PSD95 (PDZ 3) (from UniProt P78352 313-393) (domain or fragment)” was tested, and the binding [1] was “no binding”.

In the case of “OTULINcat (aa 80–352) (from UniProt Q96BN8 80-352) (domain or fragment)”, the binding [2] is reported as “no binding (tested: 65 µM)”.
